The target in assay [1] is Cdk4-CycD1 dimeric complex of Examples 1 and 2 (Cdk4 variant SEQ ID NO: 48 and CycD1 variant SEQ ID NO: 56) (human) (UniProt P11802). The assay is described as follows: co-expression in Sf9 cells; co-purification by GST affinity and anion exchange chromatography.
Assay [2] addresses CycD1 variant (amino acids 19-267 of full-length wild-type CycD1) (Homo sapiens (Human)) (UniProt P24385). The assay is described as follows: co-expression in Sf9 cells; untagged CycD1 co-purified with GST-Cdk4 by GST affinity and anion exchange chromatography.

Protein sequences, listed by entry. Tags and fused reporters are not part of them. Lines headed by an entry give the natural chain unless they say otherwise; changes in a name come on top.
UniProt P11802: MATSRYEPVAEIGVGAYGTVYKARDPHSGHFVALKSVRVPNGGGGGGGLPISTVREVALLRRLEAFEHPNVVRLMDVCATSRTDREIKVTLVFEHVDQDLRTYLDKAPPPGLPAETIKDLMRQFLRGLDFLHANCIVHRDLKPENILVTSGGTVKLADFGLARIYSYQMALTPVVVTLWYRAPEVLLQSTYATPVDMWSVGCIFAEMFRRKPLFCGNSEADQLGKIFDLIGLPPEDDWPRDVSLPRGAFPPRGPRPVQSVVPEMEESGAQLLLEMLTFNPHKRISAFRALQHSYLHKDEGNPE
UniProt P24385: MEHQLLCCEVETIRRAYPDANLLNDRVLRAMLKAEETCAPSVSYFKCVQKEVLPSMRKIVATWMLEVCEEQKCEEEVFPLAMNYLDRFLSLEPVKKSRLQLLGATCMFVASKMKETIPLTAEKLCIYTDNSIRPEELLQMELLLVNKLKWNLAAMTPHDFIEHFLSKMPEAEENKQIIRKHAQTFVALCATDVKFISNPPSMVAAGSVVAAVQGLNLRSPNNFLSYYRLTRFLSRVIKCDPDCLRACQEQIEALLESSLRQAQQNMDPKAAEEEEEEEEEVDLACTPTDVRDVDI
UniProt P46527: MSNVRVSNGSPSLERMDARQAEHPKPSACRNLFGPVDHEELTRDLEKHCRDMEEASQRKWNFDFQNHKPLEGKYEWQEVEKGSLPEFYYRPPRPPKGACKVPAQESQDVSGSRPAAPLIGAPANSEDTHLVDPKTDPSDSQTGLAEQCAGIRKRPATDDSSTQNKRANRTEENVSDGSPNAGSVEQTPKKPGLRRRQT

These are yes or no findings as the source states them, for the method shown. Binding seen in cells or lysates may run through a third protein. Some results given as binding are weak or reduced against the parent protein; the word gives no strength.

Experimental findings from patent US20210002619A1 are described below.

For “Engineered p27 (amino acids 25-98 of p27 with Y74E) (from UniProt P46527 25-98)”, the binding result in assay [1] was “binds”.

As for “Human Cdk4 variant (T172E, amino acids 44 to 46 deleted, G43E and G47E) (from UniProt P11802 2-303) (enzyme)”, the binding entry in assay [2] was “binds”.
